Test results from paper PMC12578393.
No constants are given. Whether binding was seen depends on the method and setting. In cells and extracts the contact can be indirect. Some entries that bind do so weakly or less than the wild type.

Amino acid sequences for entries named in this document (tags omitted).
UniProt O35129: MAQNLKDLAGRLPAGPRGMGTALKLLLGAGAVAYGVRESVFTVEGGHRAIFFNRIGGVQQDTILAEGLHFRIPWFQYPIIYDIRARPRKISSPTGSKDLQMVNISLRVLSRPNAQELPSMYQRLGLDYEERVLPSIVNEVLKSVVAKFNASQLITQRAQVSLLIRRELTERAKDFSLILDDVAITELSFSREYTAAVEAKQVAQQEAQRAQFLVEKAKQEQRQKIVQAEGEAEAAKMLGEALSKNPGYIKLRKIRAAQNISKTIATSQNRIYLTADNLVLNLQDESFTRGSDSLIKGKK

Target: prohibitin-2 (mouse (endogenous in MLE-12 and MODE-K)) (UniProt O35129)
Test: co-IP; co-IP of IGFBP6 and PHB2 in MLE-12 and MODE-K cells; which protein was precipitated is not told in the main text

binding: binds
B1: insulin-like growth factor binding protein 6 (protein, UniProt P47880 26-238)
chain: ALAGCPGCGAGMQTGCRGGCVEEEDAGSPADGCTEAGGCLRREGQPCGVYSPKCAPGLQCQPRENEEAPLRALLIGQGRCQRARGPSEETTKESKPQGGASRSRDTNHRDRQKNPRTSAAPIRPNPVQDSEMGPCRRHLDSVLQQLQTEVFRGGARGLYVPNCDLRGFYRKQQCRSSQGNRRGPCWCVDPMGQPLPVSPDGQGSTQCSARSSG
